This is one part of the list. Shown are side measurements of this screen, not its main read-out; they come without a call. The list favours compounds with an active or inconclusive main result. The note in brackets gives the kind of curve behind each potency; many fits are weak.
Assay: qHTS Assay for Lipid Storage Modulators in Drosophila S3 Cells;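 for cell number change: cells counted by Cell Tracker Red CMTPX staining in the red channel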
Details: BODIPY lipid droplet fluorescence, 18-24 h; for cell number change: measured here: cell count max response, cells fed with added oleic acid
Outline: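 Drosophila S3 cells got compounds at several concentrations plus oleic acid (400 uM solution). Laser-scanning cytometry with 488 nm excitation read lipid droplets at 500-530 nm and cells at 575-640 nm. Percent activity was relative to 20 uM Triacsin C.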

[1] = measured here: lipid fluorescence (Fed channel) AC50, cells fed with added oleic acid
[2] = measured here: cell number channel AC50, cells fed with added oleic acid

SMILES	cell number change	AC50 [1]	AC50 [2]
Cc1cccc(C)c1OCC(O)CN1CCC(CN2C(=O)c3cccc4cccc(c34)C2=O)CC1 (stereo unspecified)	-65.9%	18.4 µM [falling, partial curve]	
CC(=O)Nc1ncnc2c1c(-c1ccc(Cl)cc1)nn2C(C)(C)C	-14%		
O=C(Nc1ccc2c(c1)CCC2)c1cc2ccccc2o1		0.103 µM [rising, full curve, poor fit]	6.51 µM [rising, partial curve, poor fit]
CC(=O)Nc1ccc(NC(=O)CSC2=NS(=O)(=O)c3cc(F)ccc3N2)cc1	13.3%		
CN1c2ccccc2C2(C)CCCC3=Cc4cccc([N+](=O)[O-])c4OC312 (stereo unspecified)	-45.1%	29.1 µM [rising, single point]	25.9 µM [falling, single point]
COc1cccc(CNC(=O)CN(C)S(=O)(=O)c2ccc3c(c2)n(C)c(=O)c(=O)n3C)c1	-2.12%	6.51 µM [falling, single point]	
CS(=O)(=O)Cc1cc(Sc2ccccc2)nc(-c2ccncc2)n1	-13.2%		
Nc1ccc(Oc2ccc(Br)cc2)cc1	3.65%	0.82 µM [rising, full curve, poor fit]	
COc1ccc2cc(C(=O)N/N=C/c3sc4ccccc4c3O)ccc2c1	-22.5%	1.64 µM [rising, partial curve]	
Nc1[nH]c(=S)nc2nc(-c3ccccc3)c(-c3ccccc3)nc12	-8.95%	0.116 µM [falling, single point]	
Clc1ccc(COn2nnc3ccccc32)c(Cl)c1	-14.6%	0.461 µM [falling, full curve]	
COC(=O)c1cc(=O)n(Cc2ccc(OC)c(OC)c2)c(=Nc2ccc(F)cc2)s1	-15.3%	0.00461 µM [rising, full curve, poor fit]	
CC1CCC(NC(=O)Cn2c(=O)oc3ccccc32)CC1 (stereo unspecified)		0.58 µM [falling, single point]	
CCOc1ccc(C(=O)NCC(=O)NCC(c2ccccc2OC)N2CCCC2)cc1 (stereo unspecified)	25.6%		
C[C@@H](C(=O)Nc1cccnc1)n1c(=O)[nH]c2ccccc2c1=O	-5.9%	0.58 µM [falling, single point]	
COC(C/C=C/[C@@H](O)COCc1ccccc1)OC	0.77%	6.51 µM [rising, partial curve, poor fit]	
Cc1cccc(N2CCN(C(=O)C(Cc3ccccc3)n3cccc3)CC2)c1C (stereo unspecified)	51.5%	8.2 µM [rising, partial curve]	29.1 µM [rising, single point]
CCOC(=O)C(C(=O)Nc1ccccc1)C1CCCCC1 (stereo unspecified)	8.77%	18.4 µM [rising, single point]	
O=c1c2c(-c3ccccc3)csc2nc2c3ccccc3c(NCCN3CCOCC3)nn12	-63.9%	29.1 µM [falling, single point]	29.1 µM [falling, partial curve, poor fit]
O=C(COc1ccc(Br)cc1Cl)NC(=O)NC1CCCC1	-43.9%	18.4 µM [falling, single point]	29.1 µM [falling, single point]
CC(C)(C)C(=O)/C=c1\[nH]c(=O)/c(=C\c2ccc(C#N)cc2)s1	-40.1%	4.11 µM [rising, single point]	10.3 µM [falling, partial curve, poor fit]

SMILES	cell number change	AC50 [1]	AC50 [2]
CC(=O)Nc1ccc2c(c1)nc1n2CCOC1	-111%	0.13 µM [falling, full curve, poor fit]	18.4 µM [falling, partial curve]
Cc1cc(C)c(S(=O)(=O)c2cccc(Cl)c2)c(Cl)n1	16.9%		
COc1c(C)cc(C(=O)C2CCCN(S(=O)(=O)N(C)C)C2)cc1C (stereo unspecified)	-10.9%		
C=CCN1C(=O)C(Cc2cccc(Cl)c2)S/C1=N/N=C/c1ccco1 (stereo unspecified)		2.59 µM [rising, partial curve]	
O=C(CC(=O)N/N=C\c1cccc(Cl)c1Cl)NCc1ccccc1	20.8%	0.00461 µM [rising, full curve]	
O=C(Nc1ccc(N2CCOCC2)cc1)Nc1cnsn1	87.4%		16.4 µM [rising, single point]
CCOc1ccc(-c2cccc(NC(=O)c3cccs3)c2)nn1	36.6%		2.31 µM [rising, full curve]
CC(C)NS(=O)(=O)c1ccc(NC(=O)C(C)OC(=O)CCCOc2ccccc2)cc1 (stereo unspecified)	145%		23.1 µM [rising, partial curve]
COc1ccc(-n2c(SC)nc(O)c(Cc3ccccc3)c2=O)cc1	-2.51%		
O=C(c1cccc([N+](=O)[O-])c1)N1CCN(Cc2ccccc2)CC1	-12.8%		6.51 µM [falling, single point]
Cc1ccc(C(=O)NCc2nnc(SCC(=O)Nc3ccccc3)n2C)cc1		6.51 µM [rising, partial curve, poor fit]	
Cc1cc(Cl)ccc1OCC(=O)Nc1cccnc1	-26.4%	29.1 µM [rising, single point]	0.231 µM [falling, full curve, poor fit]
CCN(CC)c1ccc(/C=N/Nc2nc(C)cc(C)n2)cc1	17.5%	0.366 µM [rising, full curve, poor fit]	
CC1(C)CC(=O)C2=C(C1)OC1=C(C(=O)CC(C)(C)C1)C2c1ccc(O)cc1O	-31.6%	14.6 µM [falling, partial curve]	29.1 µM [falling, single point]
CCCN1CC=C2C(C#N)=C(N)C(C#N)(C#N)C(c3cc(OC)ccc3OC)C2C1 (stereo unspecified)	22.5%		
CCOC(=O)c1nc2ccccc2c(=O)[nH]1	-11.9%	0.058 µM [falling, full curve, poor fit]	
NC(=O)c1cccc(NC(=O)Nc2ccc(Cl)cc2)c1	-1.1%	29.1 µM [rising, single point]	
Cc1nn(-c2ncc(C(F)(F)F)cc2Cl)c(=O)n1-c1cccc(F)c1	-39.9%	29.1 µM [falling, partial curve, poor fit]	1.84 µM [falling, full curve, poor fit]
CCCCCC(=O)NC(=S)NNC(=O)CC	16.2%	1.84 µM [falling, partial curve, poor fit]	
COc1cccc(/C=C/C(=O)Nc2ccc3nc4n(c(=O)c3c2)CCCC4)c1OC	-17.5%	25.9 µM [falling, single point]	
Cc1c(-n2c(SCC(=O)O)nnc2-c2ccccc2Cl)c(=O)n(-c2ccccc2)n1C	-2.53%	0.461 µM [falling, full curve]	

SMILES	cell number change	AC50 [1]	AC50 [2]
O=C(NCCc1c[nH]c2ccccc12)c1c(Cl)nc2sccn12	-7.05%		
O=S(=O)(c1ccc(Cl)nc1)N(Cc1ccccc1)Cc1ccccc1	16.6%	29.1 µM [rising, single point]	
COC(=O)c1ccccc1S(=O)(=O)N1CCC(C(=O)NC2CCCCC2C)CC1 (stereo unspecified)	6.09%	0.411 µM [rising, partial curve]	
CC(C)NC(=O)N1CC(c2ccccc2)C(c2ccc(Cl)cc2)=N1 (stereo unspecified)	-20.8%	29.1 µM [falling, single point]	
COc1ccc(C(=O)N/C(=C/c2cccs2)c2nc3ccccc3[nH]2)cc1OC	-22.6%		6.51 µM [rising, single point]
CC(C)c1ccc(C(C(=O)NC2CCCCC2)N(C(=O)c2ccccn2)c2cccnc2)cc1 (stereo unspecified)	-0.311%	0.651 µM [rising, full curve]	0.13 µM [rising, full curve, poor fit]
CCc1ccccc1NC(=O)/C(C#N)=C/c1ccc(Sc2ccccc2)o1		29.1 µM [falling, single point]	
O=C(c1cn(Cc2ccccc2)nc1-c1ccccc1)N1CCN(c2ccccn2)CC1	12.9%	6.51 µM [rising, partial curve]	
Cc1ccc(S(=O)(=O)N(C)c2ccc(OC(=O)c3cccs3)cc2)cc1C	-6.84%		
COc1ccc(Cl)cc1Nc1nnc(-c2ccncc2)s1	11.6%	0.092 µM [rising, full curve, poor fit]	
O=C(O)CC1(CC(=O)Nc2ccc3ccccc3c2)CCCCC1	-61.3%	5.8 µM [rising, full curve, poor fit]	5.8 µM [falling, partial curve]
CC1CC(C)CN(C(=O)/C=C/c2ccc(S(=O)(=O)N3CCOCC3)cc2)C1 (stereo unspecified)	-8.03%		
CCn1cc(C(=O)NCC(OC)OC)c(=O)c2cc(S(=O)(=O)N3CCCC3)ccc21	8.02%	29.1 µM [rising, partial curve]	
O=C(c1ccccc1)N1CCN(C2CCCCCC2)CC1		18.4 µM [falling, partial curve]	
O=S(=O)(c1ccc(Br)cc1)c1nc(-c2ccccc2)oc1NCc1cccnc1	-0.545%		
O=C(Nn1c(=O)[nH]c2ccccc2c1=O)c1ccco1	-29.9%	29.1 µM [falling, single point]	0.82 µM [falling, full curve, poor fit]
CCc1noc(C)c1C(=O)N1CCCSC1=Nc1ccccc1Cl	29.7%		
CCOc1cc(/C=N\Nc2ccc([N+](=O)[O-])cc2)ccc1OCC(=O)Nc1ccc(C)c(C)c1	62.4%		29.1 µM [rising, single point]
COC(=O)c1ccc(Oc2nc(C(N)=O)cc(-c3ccccc3)n2)cc1		2.59 µM [rising, full curve]	2.91 µM [rising, partial curve]

Arranged by heavy-atom count (low to high): part of the list above.
SMILES	cell number change	AC50 [1]	AC50 [2]
CCCCCC(=O)NC(=S)NNC(=O)CC	16.2%	1.84 µM [falling, partial curve, poor fit]	
Cc1cc(Cl)ccc1OCC(=O)Nc1cccnc1	-26.4%	29.1 µM [rising, single point]	0.231 µM [falling, full curve, poor fit]
NC(=O)c1cccc(NC(=O)Nc2ccc(Cl)cc2)c1	-1.1%	29.1 µM [rising, single point]	
O=C(c1ccccc1)N1CCN(C2CCCCCC2)CC1		18.4 µM [falling, partial curve]	
CC(C)(C)C(=O)/C=c1\[nH]c(=O)/c(=C\c2ccc(C#N)cc2)s1	-40.1%	4.11 µM [rising, single point]	10.3 µM [falling, partial curve, poor fit]
O=C(NCCc1c[nH]c2ccccc12)c1c(Cl)nc2sccn12	-7.05%		
CCc1noc(C)c1C(=O)N1CCCSC1=Nc1ccccc1Cl	29.7%		
C=CCN1C(=O)C(Cc2cccc(Cl)c2)S/C1=N/N=C/c1ccco1 (stereo unspecified)		2.59 µM [rising, partial curve]	
CN1c2ccccc2C2(C)CCCC3=Cc4cccc([N+](=O)[O-])c4OC312 (stereo unspecified)	-45.1%	29.1 µM [rising, single point]	25.9 µM [falling, single point]
CCc1ccccc1NC(=O)/C(C#N)=C/c1ccc(Sc2ccccc2)o1		29.1 µM [falling, single point]	
CC1(C)CC(=O)C2=C(C1)OC1=C(C(=O)CC(C)(C)C1)C2c1ccc(O)cc1O	-31.6%	14.6 µM [falling, partial curve]	29.1 µM [falling, single point]
Cc1cccc(N2CCN(C(=O)C(Cc3ccccc3)n3cccc3)CC2)c1C (stereo unspecified)	51.5%	8.2 µM [rising, partial curve]	29.1 µM [rising, single point]
CCn1cc(C(=O)NCC(OC)OC)c(=O)c2cc(S(=O)(=O)N3CCCC3)ccc21	8.02%	29.1 µM [rising, partial curve]	
CCOc1ccc(C(=O)NCC(=O)NCC(c2ccccc2OC)N2CCCC2)cc1 (stereo unspecified)	25.6%		
O=C(c1cn(Cc2ccccc2)nc1-c1ccccc1)N1CCN(c2ccccn2)CC1	12.9%	6.51 µM [rising, partial curve]	
O=c1c2c(-c3ccccc3)csc2nc2c3ccccc3c(NCCN3CCOCC3)nn12	-63.9%	29.1 µM [falling, single point]	29.1 µM [falling, partial curve, poor fit]
Cc1cccc(C)c1OCC(O)CN1CCC(CN2C(=O)c3cccc4cccc(c34)C2=O)CC1 (stereo unspecified)	-65.9%	18.4 µM [falling, partial curve]	
